# About 100 (0.03%) of roughly 330,000 compounds were called active. The shares of active, inactive and inconclusive entries below differ from those in the screen. The call rests on the fitted dose curve; in most records, active means well fitted inhibition curve with a large enough effect; inconclusive means small, poorly fitted or top-dose-only effect; inactive means flat fitted curve, though single readings scatter. A potency beside an inconclusive call is a rough fit, not a confirmed value.
# Test system: Chaperonin Mm-Cpn (Methanococcus maripaludis)
# Test: Inhibitors of TCP-1 ring complex (TRiC) of Methanococcus maripaludis (MmCpn): qHTS; further: nearly all actives have a fitted effect of over 80% in size;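 on potency: enzyme at 25 nM with ATP substrate at 10 µM during the reaction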
# Details: purified Mm-Cpn ATPase, ADP Transcreener TR-FRET; series mostly up to 76.9 µM; activity, negative = inhibition: at the top concentration
# Method in brief: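 Compound-treated chaperonin, 25 nM final, turns over 10 uM ATP at 37°C for 30 min following a 10 min preincubation; ADP generated competes with ADP-d2 for Eu-cryptate antibody, lowering FRET.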
# On the % scale 0 is the no-effect control and ±100 the full control effect; potency means the concentration at half of the fitted maximal effect.
SMILES,"activity, negative = inhibition",Potency
CCOc1ccc2c(c1)sc(N)[n+]2Cc1cc(C)cc2cccnc12,inactive: -0.652%,
Cc1ccc(NS(=O)(=O)c2cccc3nsnc23)cc1C,inactive: -1.13%,
COc1ccc(NCc2cc3ccccc3[nH]c2=O)cc1,,"inconclusive: 11.2 µM [inhibitor, partial curve, poor fit]"
Cc1ccc(Nc2ncc3c(n2)CC(C)(C)CC3=O)cc1,,"inconclusive: 22.4 µM [inhibitor, single point]"
CC(=O)Oc1c(Br)cc(N(C(C)=O)S(=O)(=O)c2ccccc2)c2ccccc12,inactive: -0.627%,
CC(C)Cc1nc(N2CCN(C(=O)Cc3ccccc3)CC2)c(C#N)c2c1COC(C)(C)C2,,"inconclusive: 224 µM [inhibitor, partial curve, poor fit]"
CCOC(=O)c1c(C)[nH]c(C(=O)CSc2nnnn2-c2ccccc2)c1C,,"inconclusive: 79.4 µM [inhibitor, single point]"
CCCCNC(=O)c1c[nH]c2ccc(S(=O)(=O)Nc3ccc(OCC)cc3)cc2c1=O,,"inconclusive: 11.2 µM [inhibitor, single point]"
OCC1(CCc2ccccc2)CCN(Cc2ccc(OC(F)F)cc2)CC1,inactive: 0.0911%,
COc1ccc(S(=O)(=O)N(C)c2ccc(C(=O)N3CCN(C)CC3)cc2)cc1,,"inconclusive: 11.2 µM [inhibitor, single point]"
COc1cccc(N/C=C(\C#N)c2ccc(OCCCF)cc2)c1,,"inconclusive: 100 µM [inhibitor, single point]"
COC(=O)c1c(-c2ccccc2OC)sc2ccc(OC)cc12,,"inconclusive: 50.1 µM [inhibitor, partial curve, poor fit]"
CC1(C)Cc2c(c(N3CCOCC3)nc3sc(C(=O)Nc4ccccc4)c(N)c23)CO1,,"inconclusive: 100 µM [inhibitor, single point]"
CCN(CC)CCCN(Cc1cc2cc3c(cc2[nH]c1=O)OCCO3)C(=O)Nc1ccccc1,,"inconclusive: 44.7 µM [inhibitor, single point]"
CC(C)c1nc2sc3c(SCC(N)=O)ncnc3c2c2c1CCC2,,"inconclusive: 100 µM [inhibitor, partial curve, poor fit]"
CCOC(=O)c1sc2nc(C)nc(NCc3ccc(Cl)cc3)c2c1C,inactive: 1.92%,
Cc1cccc(OCC(=O)Nc2ccc(C(=O)NCC(C)C)cc2)c1,,"inconclusive: 89.1 µM [inhibitor, single point]"
CC(C)CC(=O)NC(=S)Nc1cccc2nsnc12,,"inconclusive: 22.4 µM [inhibitor, partial curve, poor fit]"
Cc1cc(C(=O)Nc2nc3ccc(S(C)(=O)=O)cc3s2)c(C)o1,inactive: 0.694%,
CCc1cccc(CC)c1NC(=S)Nc1ccccc1,inactive: 0.955%,
CCCC[C@@H](CNC)NC[C@H](NCCCCC1CCCCC1)C(C)C,,"inconclusive: 22.4 µM [inhibitor, single point]"
CN(CC(=O)Nc1c(Cl)cccc1Cl)C(=O)c1ccc2ccccc2n1,inactive: -0.706%,
Cc1cc2cc(CNC(=O)c3ccc(S(=O)(=O)N(C)C)cc3)ccc2n1C,,"inconclusive: 50.1 µM [inhibitor, single point]"
Cc1cc(S(N)(=O)=O)c(N)c(S(N)(=O)=O)c1,,"inconclusive: 50.1 µM [inhibitor, single point]"
Cc1nc(NC(=O)CN2CCCCC2)sc1C(=O)N(C)C,inactive: 0.0902%,

SMILES,"activity, negative = inhibition",Potency
O=C(O)CCN1C(=O)c2ccc(NC(=O)CSc3ccc(Cl)cc3)cc2C1=O,,"inconclusive: 89.1 µM [inhibitor, single point]"
Cc1cc(C)c(C#N)c(Sc2nnnn2-c2ccccc2)n1,inactive: -0.449%,
CN(C)S(=O)(=O)c1cccc(NC(=O)c2cc(-c3cccs3)nc3ccccc23)c1,,"inconclusive: 63.1 µM [inhibitor, partial curve, poor fit]"
C=C1SC(=Nc2ccccc2Cl)N(C(=O)c2sc3ccccc3c2Cl)C1(C)C,,"inconclusive: 100 µM [inhibitor, partial curve, poor fit]"
CCOc1ccc(N2C(=O)CC(Sc3nccc(C)n3)C2=O)cc1 (centres undefined),,"inconclusive: 100 µM [inhibitor, single point]"
Cc1ccc2nc(NC(=O)c3ccc4ncsc4c3)sc2c1,,"inconclusive: 355 µM [inhibitor, partial curve, poor fit]"
Cc1cc(/C=C2\SC(=S)NC2=O)c(C)n1-c1ccc(O)cc1,inactive: 1.21%,
O=[N+]([O-])c1ccc(/C=N/n2c(C3CCCCC3)n[nH]c2=S)cc1,,"inconclusive: 17.8 µM [inhibitor, single point]"
Cc1ccc(S(=O)(=O)NC(=O)Nc2ccc(N(C)C)cc2)cc1,,"inconclusive: 39.8 µM [inhibitor, partial curve, poor fit]"
O=C(O)C1C2C=CC(C2)C1C(=O)NCc1ccc(Cl)c(Cl)c1 (centres undefined),inactive: -3.05%,
O=c1c(-c2ccccc2)coc2c(CN3CCCC3)c(O)ccc12,,active: 44.7 µM
COc1ccc(OC)c(/C=N/N=C2\SCC(=O)N2Cc2ccco2)c1,inactive: 0.891%,
Cc1cccc(NC(=O)c2cc(-c3cccnc3)nc3c(C)cccc23)n1,,"inconclusive: 22.4 µM [inhibitor, single point]"
Fc1ccc(C2N(c3ccccc3)C(=S)N3CCCN23)cc1 (centres undefined),inactive: -0.154%,
Cc1cccc(C2c3[nH]c4ccccc4c3CCN2C(=O)CN2CCOC2=O)n1 (centres undefined),inactive: -0.142%,
Cc1ccc(C(=O)Nc2ccc(N3CCOCC3)c3nonc23)cc1[N+](=O)[O-],,"inconclusive: 100 µM [inhibitor, single point]"
COc1ccc(-c2c(-c3cc(OC)cc(OC)c3)sc3ccc(OC)cc23)cc1,,"inconclusive: 79.4 µM [inhibitor, partial curve, poor fit]"
Fc1ccc(CN2CCN(c3ncnc4scc(-c5ccc(F)cc5)c34)CC2)cc1,,"inconclusive: 100 µM [inhibitor, single point]"
COc1ccc(CC(=O)NNC(=O)COc2ccc3ccccc3c2)cc1,,active: 39.8 µM
Brc1ccccc1/C=N/Nc1ccccn1,inactive: -0.0991%,
Cn1c(N)nc2nc(CCc3ccccc3)c(=O)[nH]c2c1=O,,"inconclusive: 15.8 µM [inhibitor, single point]"
O=C(N/N=C\c1ccncc1)c1ccccc1O,inactive: 0.31%,
COc1cccc(CN2CCN(C(=O)c3ccco3)CC2)c1,inactive: 1.91%,
CC(C)=C1C(=O)NN(c2ccc(F)c(Cl)c2)C1=O,inactive: 0.938%,
O=C(CSc1ncnc2ccccc12)Nc1cc(S(=O)(=O)N2CCCCC2)ccc1Cl,,"inconclusive: 63.1 µM [inhibitor, single point]"

# Some of these compounds in order of molar mass, smallest number first.
SMILES,"activity, negative = inhibition",Potency
Cn1c(N)nc2nc(CCc3ccccc3)c(=O)[nH]c2c1=O,,"inconclusive: 15.8 µM [inhibitor, single point]"
CCOc1ccc(N2C(=O)CC(Sc3nccc(C)n3)C2=O)cc1 (centres undefined),,"inconclusive: 100 µM [inhibitor, single point]"
CN(C)S(=O)(=O)c1cccc(NC(=O)c2cc(-c3cccs3)nc3ccccc23)c1,,"inconclusive: 63.1 µM [inhibitor, partial curve, poor fit]"

# Next part

SMILES,"activity, negative = inhibition",Potency
COc1ccc([C@H]2CC(=O)C=C(c3cc(C=O)ccc3OC)C2)cc1OC,,"inconclusive: 70.8 µM [inhibitor, single point]"
O=c1c(Cc2ccc(F)cc2)c(O)ccn1CCCN1CCOCC1,,"inconclusive: 25.1 µM [inhibitor, single point]"
O=C(CCN1CCN(c2ccc(F)cc2)CC1)Nc1ccccc1F,inactive: 1%,
Cc1sc2nc(CN3CCC(C)CC3)nc(Cl)c2c1C,,"inconclusive: 17.8 µM [inhibitor, single point]"
Cc1nc(C)c(C(=O)C2=C(O)C(=O)N(CCN(C)C)C2c2ccccc2)s1 (centres undefined),,"inconclusive: 25.1 µM [inhibitor, single point]"
C=CCNC(=S)NN=C1CCCCCCC1,inactive: -3.32%,
Cc1ccsc1CN(C(=O)c1ccccc1)C1CCS(=O)(=O)C1 (centres undefined),,"inconclusive: 100 µM [inhibitor, partial curve, poor fit]"
Cc1cc(F)ccc1S(=O)(=O)Nc1ncnc2scc(-c3ccc(F)cc3)c12,,"inconclusive: 28.2 µM [inhibitor, single point]"
O=C(CC(=O)c1ccccc1O)c1ccc(F)cc1,inactive: -1.19%,
COc1ccc(CNCCC(c2ccc(OC(C)C)cc2)c2ccccc2OC)cc1OC (centres undefined),,"inconclusive: 22.4 µM [inhibitor, single point]"
O=C(/C=C/c1ccccc1)Nc1ccc(Br)cn1,inactive: -1.78%,
O=C(Cn1cnc2c(cnn2-c2ccc(F)cc2)c1=O)NCC1CCCO1 (centres undefined),inactive: -1.57%,
Cc1ccc(/C(O)=C2\C(=O)C(=O)N(CCN(C)C)C2c2ccccc2F)cc1 (centres undefined),inactive: -4.25%,
O=C(COC(=O)c1ccc2ncsc2c1)Nc1ncc(Cl)cc1Cl,,"inconclusive: 200 µM [inhibitor, partial curve, poor fit]"
CCOc1ccccc1OC(=O)CN1C(=O)c2ccccc2C1=O,,"inconclusive: 7.08 µM [inhibitor, partial curve, poor fit]"
O=C(NCCCO)Nc1ccc2nc(-c3ccco3)c(-c3ccco3)nc2c1,,"inconclusive: 100 µM [inhibitor, partial curve, poor fit]"
CCOC(=O)C1CCN(C(=O)Nc2ccc(OC(F)(F)F)cc2)CC1,inactive: -0.452%,
COc1ccc2nc(-c3ccccc3)[nH]c2c1,inactive: -6.52%,
COc1ccc(/C=C/C(=O)Nc2cc(C)nn2-c2nc3ccccc3n2Cc2cccc([N+](=O)[O-])c2)cc1,,"inconclusive: 25.1 µM [inhibitor, single point]"
CCN(CC)c1ccc(NC(=O)C2CCCC2)cc1,,"inconclusive: 14.1 µM [inhibitor, single point]"
Cc1ccc([C@H]2C(C(=O)O)=C[C@@H](CC3CCCC3)N2S(=O)(=O)c2ccc(C)cc2)cc1,inactive: 0.657%,
COc1ccccc1C(=O)COC(=O)c1cnc(C)cn1,inactive: 0.806%,
COc1cccc(C(=O)OCC(=O)c2ccc(Br)s2)c1,,"inconclusive: 158 µM [inhibitor, partial curve]"
Cc1ccc(NC(=O)Cc2nc(-c3c[nH]c(C(=O)N4CCCC4)c3)cs2)c(C)c1,,"inconclusive: 89.1 µM [inhibitor, single point]"

# — PubChem BioAssay AID504842 (National Center for Advancing Translational Sciences (NCATS), 2011)
